These results are taken from patent publication US7592168B2, “Cephalosporin C acylase mutant and method for preparing 7-ACA using same” (Sandoz AG, priority 2003, dated 2009).

The nature of the data set: Optimal reaction temperature and pH to CPC. In kind it is biochemical. As to the method:
Further, as a result of examining the optimal reaction temperature and pH of the wild-type CPC acylase AcyII, the optimal reaction temperature and pH to CPC were 40° C. and 9.0, respectively.

B1: Wild-type: Pseudomonas sp. SE83 derived wild-type CPC acylase (AcyII), α-subunit SEQ ID NO: 4 and β-subunit SEQ ID NO: 5, from pBCPC (protein)
alpha: TMAAKTDREALQAALPPLSGSLSIPGLSAPVRVQRDGWGIPHIKASGEADAYRALGFVHAQDRLFQMELTRRKALGRAAEWLGAEAAEADILVRRLGMEKVCRRDFEALGAEAKDMLRAYVAGVNAFLASGAPLPIEYGLLGAEPEPWEPWHSIAVMRRLGLLMGSVWFKLWRMLALPVVGAANALKLRYDDGGQDLLCIPPGVEAERLEADLAALRPAVDALLKAMGG
beta: SNNWAVAPGRTATGRPILAGDPHRVFEIPGMYAQHHLACDRFDMIGLTVPGVPGFPHFAHNGKVAYCVTHAFMDIHDLYLEQFAEDGRTARFGNEFEPVAWRRDRIAVRGGADREFDIVETRHGPVIAGDPLEGAALTLRSVQFAETDLSFDCLTRMPGASTVAQLYDATRGWGLIDHNLVAGDVAGSIGHLVRARVPSRPRENGWLPVPGWSGEHEWRGWIPHEAMPRVIDPPGGLIVTANNRVVADDHPDYLCTDCHPPYRAERIMERLVASPAFAVDDAAAIHADTLSPHVGLLRARLEALGIQGSLPAEELRQTLIAWDGRMDAGSQAASAYNAFRRALTRLVTARSGLEQAIAHPFAAVPPGVSPQGQVWWAVPTLLRNDDAGMLKGWSWDEALSEALSVATQNLTGRGWGEEHRPRFTHPLSAQFPAWAALLNPVSRPIGGDGDTVLANGLVPSAGPEATYGALSRYVFDVGNWDNSRWVVFHGASGHPASPHYADQNAPWSDCAMVPMLYSWDRIAAEAVTSQELVPA
modifications: Pseudomonas sp. SE83
Consider B1, for which the “optimal reaction pH to CPC” value is 9.0 and the “optimal reaction temperature to CPC” value was found to be 40 °C.
